# No constants are given. Whether binding was seen depends on the method and setting. Some binding calls cover weakened binding; strength is not graded here.
# T1: NFκB family member p50 (human), P19838
# T1 chain: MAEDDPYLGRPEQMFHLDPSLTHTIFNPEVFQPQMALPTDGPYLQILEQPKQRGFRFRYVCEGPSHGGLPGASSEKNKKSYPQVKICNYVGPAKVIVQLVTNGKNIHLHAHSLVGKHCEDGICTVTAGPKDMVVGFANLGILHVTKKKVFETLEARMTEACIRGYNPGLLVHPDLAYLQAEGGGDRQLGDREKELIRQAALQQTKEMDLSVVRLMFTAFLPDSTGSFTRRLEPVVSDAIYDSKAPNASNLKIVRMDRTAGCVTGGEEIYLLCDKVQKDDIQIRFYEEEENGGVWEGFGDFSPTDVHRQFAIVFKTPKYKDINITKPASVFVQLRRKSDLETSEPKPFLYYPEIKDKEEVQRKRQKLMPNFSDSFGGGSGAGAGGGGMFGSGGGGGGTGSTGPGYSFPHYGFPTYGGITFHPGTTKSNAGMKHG
# B1: NFκB family member p50 (other, human, UniProt P19838 1-433, looked up)
# chain: T1 chain
# notes: also called p50 NFκB protein
# Biological target: T1, NFκB family member p50 (human), P19838
# Test: EMSA gel supershift, HT29 nuclear extract on κB1 oligonucleotide
# Details: remark: other sources report otherwise
binder,measurement,value
B1,binding,binds

# Source: patent publication US20070238638A1 (TANOX, published 2007)
